These are yes or no findings as the source states them, for the method shown. In cells and extracts the contact can be indirect. Here binding means that the protein was enriched with, or labelled near, the bait; the list need not be complete. No binding means not detected with the bait. Tags and fused reporters may be left off the sequences shown.
T1: TMEM126A with a C-terminal Flag epitope tag (human) (UniProt Q9H061)
T1 sequence: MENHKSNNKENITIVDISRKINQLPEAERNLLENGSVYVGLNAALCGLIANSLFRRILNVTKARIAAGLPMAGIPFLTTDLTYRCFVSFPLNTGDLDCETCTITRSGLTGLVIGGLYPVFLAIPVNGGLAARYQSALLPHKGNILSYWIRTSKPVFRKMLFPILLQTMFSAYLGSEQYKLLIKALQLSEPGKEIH

Sequences of proteins named here, by UniProt entry; tags and fusion partners are left off. Residues count along the entry.
UniProt P51970: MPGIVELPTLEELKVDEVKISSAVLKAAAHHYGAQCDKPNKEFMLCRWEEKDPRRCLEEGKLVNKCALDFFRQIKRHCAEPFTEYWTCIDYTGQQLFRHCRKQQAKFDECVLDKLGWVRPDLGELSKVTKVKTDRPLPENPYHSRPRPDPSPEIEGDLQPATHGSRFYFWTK
UniProt O95299, residues 36-355: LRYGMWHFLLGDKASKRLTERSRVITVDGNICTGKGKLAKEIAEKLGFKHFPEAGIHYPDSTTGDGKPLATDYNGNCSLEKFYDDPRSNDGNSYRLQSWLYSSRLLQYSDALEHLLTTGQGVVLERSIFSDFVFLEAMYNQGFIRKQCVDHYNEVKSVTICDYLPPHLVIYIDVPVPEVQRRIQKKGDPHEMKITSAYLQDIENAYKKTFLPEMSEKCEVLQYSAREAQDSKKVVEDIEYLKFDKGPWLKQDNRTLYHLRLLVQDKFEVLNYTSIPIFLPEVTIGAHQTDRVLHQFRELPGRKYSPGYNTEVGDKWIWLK
UniProt Q9P0J0: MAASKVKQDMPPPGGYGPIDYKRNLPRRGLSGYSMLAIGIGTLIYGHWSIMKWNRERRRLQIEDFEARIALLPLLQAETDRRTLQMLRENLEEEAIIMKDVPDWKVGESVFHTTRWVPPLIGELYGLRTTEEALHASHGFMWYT
UniProt Q9BU61: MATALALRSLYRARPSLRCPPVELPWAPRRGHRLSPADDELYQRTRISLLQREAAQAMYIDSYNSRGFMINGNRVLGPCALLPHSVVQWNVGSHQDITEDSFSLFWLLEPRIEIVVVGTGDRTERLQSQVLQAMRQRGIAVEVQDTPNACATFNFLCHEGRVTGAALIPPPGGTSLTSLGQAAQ
UniProt O43674, residues 47-189: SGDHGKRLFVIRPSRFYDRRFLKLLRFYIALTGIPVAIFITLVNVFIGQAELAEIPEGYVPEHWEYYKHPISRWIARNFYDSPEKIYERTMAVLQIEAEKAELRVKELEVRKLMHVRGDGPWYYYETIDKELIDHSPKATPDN
UniProt O95139: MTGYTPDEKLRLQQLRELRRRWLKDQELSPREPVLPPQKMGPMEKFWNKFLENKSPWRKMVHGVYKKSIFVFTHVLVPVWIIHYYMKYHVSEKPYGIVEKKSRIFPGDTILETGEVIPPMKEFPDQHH
UniProt O95169, residues 29-186: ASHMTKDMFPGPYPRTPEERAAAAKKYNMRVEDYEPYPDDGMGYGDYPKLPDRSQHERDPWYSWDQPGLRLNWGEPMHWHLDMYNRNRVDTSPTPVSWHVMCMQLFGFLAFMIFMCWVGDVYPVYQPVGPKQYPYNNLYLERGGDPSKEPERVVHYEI
UniProt O95167: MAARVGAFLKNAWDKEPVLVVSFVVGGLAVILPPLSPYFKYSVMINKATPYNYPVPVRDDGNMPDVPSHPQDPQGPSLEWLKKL
UniProt Q9P032: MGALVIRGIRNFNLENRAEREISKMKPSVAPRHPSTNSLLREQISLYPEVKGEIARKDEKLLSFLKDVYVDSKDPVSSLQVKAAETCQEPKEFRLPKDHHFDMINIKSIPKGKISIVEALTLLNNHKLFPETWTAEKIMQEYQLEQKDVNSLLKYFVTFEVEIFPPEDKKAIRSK
UniProt Q9Y6M9: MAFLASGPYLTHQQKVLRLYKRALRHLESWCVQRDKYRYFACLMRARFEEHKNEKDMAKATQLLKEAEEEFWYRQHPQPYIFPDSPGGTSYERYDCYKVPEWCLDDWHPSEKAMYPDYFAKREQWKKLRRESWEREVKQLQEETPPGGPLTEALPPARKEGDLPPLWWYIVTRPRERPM
UniProt Q9NX14, residues 30-153: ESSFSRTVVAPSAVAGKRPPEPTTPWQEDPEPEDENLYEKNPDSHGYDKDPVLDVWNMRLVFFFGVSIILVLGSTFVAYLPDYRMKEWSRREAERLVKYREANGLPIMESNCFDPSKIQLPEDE


The molecules below were run against T1, TMEM126A with a C-terminal Flag epitope tag (human) (assay: affinity purification with mass spectrometry).

Molecule	binding
NDUFA8 (from UniProt P51970 1-172)	binds
NDUFA10 (from UniProt O95299 36-355)	binds
NDUFA13 (from UniProt Q9P0J0 1-144)	binds
NDUFAF3 (from UniProt Q9BU61 1-184)	binds
NDUFB5 (from UniProt O43674 47-189)	binds
NDUFB6 (from UniProt O95139 1-128)	binds
NDUFB8 (from UniProt O95169 29-186)	binds
ACAD9 (protein, UniProt Q9H845 38-621) AFAKELFLGKIKKKEVFPFPEVSQDELNEINQFLGPVEKFFTEEVDSRKIDQEGKIPDETLEKLKSLGLFGLQVPEEYGGLGFSNTMYSRLGEIISMDGSITVTLAAHQAIGLKGIILAGTEEQKAKYLPKLASGEHIAAFCLTEPASGSDAASIRSRATLSEDKKHYILNGSKVWITNGGLANIFTVFAKTEVVDSDGSVKDKITAFIVERDFGGVTNGKPEDKLGIRGSNTCEVHFENTKIPVENILGEVGDGFKVAMNILNSGRFSMGSVVAGLLKRLIEMTAEYACTRKQFNKRLSEFGLIQEKFALMAQKAYVMESMTYLTAGMLDQPGFPDCSIEAAMVKVFSSEAAWQCVSEALQILGGLGYTRDYPYERILRDTRILLIFEGTNEILRMYIALTGLQHAGRILTTRIHELKQAKVSTVMDTVGRRLRDSLGRTVDLGLTGNHGVVHPSLADSANKFEENTYCFGRTVETLLLRFGKTIMEEQLVLKRVANILINLYGMTAVLSRASRSIRIGLRNHDHEVLLANTFCVEAYLQNLFSLSQLDKYAPENLDEQIKKVSQQILEKRAYICAHPLDRTC	binds
DMAC2 (protein, UniProt Q9NW81 1-257) MAAPWASLRLVAPMWNGRIRGIHRLGAAVAPEGNQKKKRTILQFLTNYFYDVEALRDYLLQREMYKVHEKNRSYTWLEKQHGPYGAGAFFILKQGGAVKFRDKEWIRPDKYGHFSQEFWNFCEVPVEAVDAGDCDINYEGLDNLLRLKELQSLSLQRCCHVDDWCLSRLYPLADSLQELSLAGCPRISERGLACLHHLQNLRRLDISDLPAVSNPGLTQILVEEMLPNCEVVGVDWAEGLKSGPEEQPRDTASPVPA	no binding
ECSIT (protein, UniProt Q9BQ95 49-431) SSEQSLVPSPPEPRQRPTKALVPFEDLFGQAPGGERDKASFLQTVQKFAEHSVRKRGHIDFIYLALRKMREYGVERDLAVYNQLLNIFPKEVFRPRNIIQRIFVHYPRQQECGIAVLEQMENHGVMPNKETEFLLIQIFGRKSYPMLKLVRLKLWFPRFMNVNPFPVPRDLPQDPVELAMFGLRHMEPDLSARVTIYQVPLPKDSTGAADPPQPHIVGIQSPDQQAALARHNPARPVFVEGPFSLWLRNKCVYYHILRADLLPPEEREVEETPEEWNLYYPMQLDLEYVRSGWDNYEFDINEVEEGPVFAMCMAGAHDQATMAKWIQGLQETNPTLAQIPVVFRLAGSTRELQTSSAGLEEPPLPEDHQEEDDNLQRQQQGQS	binds
TIMMDC1 (protein, UniProt Q9NPL8 1-285) MEVPPPAPRSFLCRALCLFPRVFAAEAVTADSEVLEERQKRLPYVPEPYYPESGWDRLRELFGKDEQQRISKDLANICKTAATAGIIGWVYGGIPAFIHAKQQYIEQSQAEIYHNRFDAVQSAHRAATRGFIRYGWRWGWRTAVFVTIFNTVNTSLNVYRNKDALSHFVIAGAVTGSLFRINVGLRGLVAGGIIGALLGTPVGGLLMAFQKYSGETVQERKQKDRKALHELKLEEWKGRLQVTEHLPEKIESSLQEDEPENDAKKIEALLNLPRNPSVIDKQDKD	binds
FOXRED1 (protein, UniProt Q96CU9 1-486) MIRRVLPHGMGRGLLTRRPGTRRGGFSLDWDGKVSEIKKKIKSILPGRSCDLLQDTSHLPPEHSDVVIVGGGVLGLSVAYWLKKLESRRGAIRVLVVERDHTYSQASTGLSVGGICQQFSLPENIQLSLFSASFLRNINEYLAVVDAPPLDLRFNPSGYLLLASEKDAAAMESNVKVQRQEGAKVSLMSPDQLRNKFPWINTEGVALASYGMEDEGWFDPWCLLQGLRRKVQSLGVLFCQGEVTRFVSSSQRMLTTDDKAVVLKRIHEVHVKMDRSLEYQPVECAIVINAAGAWSAQIAALAGVGEGPPGTLQGTKLPVEPRKRYVYVWHCPQGPGLETPLVADTSGAYFRREGLGSNYLGGRSPTEQEEPDPANLEVDHDFFQDKVWPHLALRVPAFETLKVQSAWAGYYDYNTFDQNGVVGPHPLVVNMYFATGFSGHGLQQAPGIGRAVAEMVLKGRFQTIDLSPFLFTRFYLGEKIQENNII	no binding

Further lines, results first:

binding	Molecule
binds	NDUFA3 (from UniProt O95167 1-84)
binds	NDUFAF4 (from UniProt Q9P032 1-175)
binds	NDUFB9 (from UniProt Q9Y6M9 1-179)
binds	NDUFB11 (from UniProt Q9NX14 30-153)
binds	OXA1L (human (endogenous in HEK293T))
binds	TMEM70 (protein, UniProt Q9BUB7 82-260) LNTPSDKSEDGRLIYTGNMARAVFGVKCFSYSTSLIGLTFLPYIFTQNNAISESVPLPIQIIFYGIMGSFTVITPVLLHFITKGYVIRLYHEATTDTYKAITYNAMLAETSTVFHQNDVKIPDAKHVFTTFYAKTKSLLVNPVLFPNREDYIHLMGYDKEEFILYMEETSEEKRHKDDK

— publication doi:10.1101/2020.09.18.303255
